{
  "source": "paper PMC4049815",
  "target": "N-terminally truncated p53 (p53 ΔN) (mouse)",
  "assay": "co-IP; HEK293A cells co-transfected with untagged necdin (FL or ΔH4/5) and Myc-tagged PIAS1 forms or p53; lysates precipitated and blotted with antibodies to Myc and necdin (Fig. 7B: IP anti-necdin, blot anti-Myc)",
  "note": "No constants are given. Whether binding was seen depends on the method and setting. In cells and extracts the contact can be indirect. Sequences can lack the tags named with a protein.",
  "data": [
    {"binder": "necdin (full-length, untagged) (protein, UniProt P25233 1-325) MSEQSKDLSDPNFAAEVPDCEMQDSDAVPVGIPPPASLAANLAGPPCAPEGPMAAQQASPPPEERIEDVDPKILQQAAEEGRAHQPQSPARPIPAPPAPAQLVQKAHELMWYVLVKDQKRMVLWFPDMVKEVMGSYKKWCRSILRRTSVILARVFGLHLRLTNLHTMEFALVKALSPEELDRVALNNRMPMTGLLLMILSLIYVKGRGAREGAVWNVLRILGLRPWKKHSTFGDVRKIITEEFVQQNYLKYQRVPHIEPPEYEFFWGSRANREITKMQIMEFLARVFKKDPQAWPSRYREALEQARALREANLAAQAPRSSVSED", "values": [
      {"measurement": "binding", "result": "no binding"}
    ]}
  ]
}
